Reference: patent US20050048539A1, “Methods to monitor molecule conformation and molecule/molecule proximity” (The General Hospital Corporation, priority 2003, published 2005)
For at least one compound, name, drawing or mass did not settle the structure.

System: Aβ40, Aβ42 and Aβ1-x
Assay: Aβ ELISA of conditioned medium of PS70 cells treated with NSAIDs
Assay type: cell-based, human
Details: 24 hours
Description: Cell culture and drug treatment: PS70 cells, CHO cells stably overexpressing wild-type human PS1 and APP 751 (Xia, W. et al., J. Biol. Chem. 272, 7977-7982, 1997), mouse N2a neuroblastoma, or human embryonic kidney (HEK) cells were used in this study. Cells were cultured in OPTI-MEMI with 5% fetal bovine serum at 37° C. with 5% CO2 in a tissue culture incubator. Primary cultured hippocampal-cortical neurons were prepared from embryonic day 16-18 mouse brain as described (Berezovska, O. et al., Brain Res Mol Brain Res 69: 273-280, 1999).
The NSAIDs (S)-ibuprofen (250 mM, Biomol, Plymouth Meeting, Penn.), (R)-ibuprofen (250 mM, Biomol), and flurbiprofen (250 mM, Calbiochem, San Diego, Calif.) were dissolved in 100% ethanol. […] Cells were plated onto either 12-well plates (for Aβ determinations) or onto 4-chamber slides (FLIM studies) and treated for 24 hours with NSAIDs prior to the analysis. A vehicle control chamber treated with ethanol or DMSO (0.1%) was included in each experiment. Cell toxicity was analyzed for all drugs tested by measuring adenylate kinase levels using Toxi-light reagent (Camdex, New Jersey).
ELISA, BACE-specific enzymatic activity assay and Western Blots: For Aβ ELISA we used 500 μl of conditioned medium collected 24 hours post-treatment. Formic acid-extractable Aβ in the mouse brain was measured as described (Fukumoto, H.,et al., Am. J. Pathol. 164, 719-725, 2004). The capture antibody was BNT77 and the detection antibody was horseradish peroxidase (HRP)-conjugated BA27 for Aβ40 and HRP-conjugated BC05 for Aβ42 (Asami-Odaka, A. et al., Biochemistry 34: 10272-10278, 1995). […] BACE activity was measured using a sensitive BACE-specific enzymatic activity assay (Fukumoto, H.,et al., Am. J. Pathol. 164, 719-725, 2004).
We treated Chinese hamster ovary (CHO) cells stably transfected with APP and PS1 (PS70 cells) with several NSAIDs at different doses for 24 hours and measured Aβ40 and Aβ42 using ELISA (FIG. 14).

With `Cc1cnc(NC(=O)C2=C(O)c3ccccc3S(=O)(=O)N2C)s1` [meloxicam, Meloxicam] the “Aβ40 level (ELISA)” value was “No or small change”, the “Aβ42 level (ELISA)” value was “No or small change” and the “Aβ1-x level (ELISA)” value (high doses) was “did not observe a change”.
